Publication PMC11041046
Results are given in words; binding and its absence hold for the method and conditions named. For part of these data: Binding seen in cells or lysates may run through a third protein. Some entries that bind do so weakly or less than the wild type. Where a sequence is shown, tags or fusion partners need not be part of it. Blank lines part the entries; values can stand above or below the binder they belong to.

The chains behind the UniProt entries cited, without tags or fusion partners.
UniProt Q86U44: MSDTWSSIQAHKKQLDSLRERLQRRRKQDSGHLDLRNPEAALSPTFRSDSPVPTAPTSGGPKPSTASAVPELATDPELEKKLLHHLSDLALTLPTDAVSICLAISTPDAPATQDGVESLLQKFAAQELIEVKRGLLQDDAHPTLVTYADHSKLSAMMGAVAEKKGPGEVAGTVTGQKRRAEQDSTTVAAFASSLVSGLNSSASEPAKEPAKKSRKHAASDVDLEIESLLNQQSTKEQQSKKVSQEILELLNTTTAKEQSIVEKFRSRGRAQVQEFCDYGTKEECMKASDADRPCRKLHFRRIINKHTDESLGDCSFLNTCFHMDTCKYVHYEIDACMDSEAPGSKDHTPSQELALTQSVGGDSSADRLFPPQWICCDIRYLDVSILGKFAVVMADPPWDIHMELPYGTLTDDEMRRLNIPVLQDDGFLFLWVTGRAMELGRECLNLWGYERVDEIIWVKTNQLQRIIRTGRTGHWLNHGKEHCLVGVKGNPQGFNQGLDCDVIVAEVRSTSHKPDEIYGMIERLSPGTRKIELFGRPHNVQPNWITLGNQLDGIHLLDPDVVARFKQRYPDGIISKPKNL

Experiments:
METTL3, Flag-tagged = METTL3, Flag-tagged (UniProt Q86U44); assay: co-IP; 293T-purified Flag-METTL3 mixed with 293T-purified HA-RBM15; mixture immunoprecipitated with IgG, anti-Flag and anti-HA antibody; blotted for both proteins; both purified
[1] = biological target: insulin-like growth factor 2 mRNA-binding protein 1 (IGF2BP1), Myc-tagged, Q9NZI8; assay: co-IP; mutual co-IP; PC-3 cell lysates immunoprecipitated with IgG or anti-Myc-tag antibody, Protein A/G magnetic beads; precipitates blotted for IGF2BP1/2/3; conditions: remark: other sources report otherwise
[2] = biological target: insulin-like growth factor 2 mRNA-binding protein 2 (IGF2BP2), Myc-tagged, Q9Y6M1; assay: as above; conditions: remark: other sources report otherwise

- binding (METTL3, Flag-tagged): binds
B1: RBM15, HA-tagged (protein, UniProt Q96T37 1-977)
chain: MRTAGRDPVPRRSPRWRRAVPLCETSAGRRVTQLRGDDLRRPATMKGKERSPVKAKRSRGGEDSTSRGERSKKLGGSGGSNGSSSGKTDSGGGSRRSLHLDKSSSRGGSREYDTGGGSSSSRLHSYSSPSTKNSSGGGESRSSSRGGGGESRSSGAASSAPGGGDGAEYKTLKISELGSQLSDEAVEDGLFHEFKRFGDVSVKISHLSGSGSGDERVAFVNFRRPEDARAAKHARGRLVLYDRPLKIEAVYVSRRRSRSPLDKDTYPPSASVVGASVGGHRHPPGGGGGQRSLSPGGAALGYRDYRLQQLALGRLPPPPPPPLPRDLERERDYPFYERVRPAYSLEPRVGAGAGAAPFREVDEISPEDDQRANRTLFLGNLDITVTESDLRRAFDRFGVITEVDIKRPSRGQTSTYGFLKFENLDMSHRAKLAMSGKIIIRNPIKIGYGKATPTTRLWVGGLGPWVPLAALAREFDRFGTIRTIDYRKGDSWAYIQYESLDAAHAAWTHMRGFPLGGPDRRLRVDFADTEHRYQQQYLQPLPLTHYELVTDAFGHRAPDPLRGARDRTPPLLYRDRDRDLYPDSDWVPPPPPVRERSTRTAATSVPAYEPLDSLDRRRDGWSLDRDRGDRDLPSSRDQPRKRRLPEESGGRHLDRSPESDRPRKRHCAPSPDRSPELSSSRDRYNSDNDRSSRLLLERPSPIRDRRGSLEKSQGDKRDRKNSASAERDRKHRTTAPTEGKSPLKKEDRSDGSAPSTSTASSKLKSPSQKQDGGTAPVASASPKLCLAWQGMLLLKNSNFPSNMHLLQGDLQVASSLLVEGSTGGKVAQLKITQRLRLDQPKLDEVTRRIKVAGPNGYAILLAVPGSSDSRSSSSSAASDTATSTQRPLRNLVSYLKQKQAAGVISLPVGGNKDKENTGVLHAFPPCEFSQQFLDSPAKALAKSEEDYLVMIIVRGFGFQIGVRYENKKRENLALTLL

- binding [1]: binds
B2: insulin-like growth factor 2 mRNA-binding protein 2 (IGF2BP2), Myc-tagged, Q9Y6M1 1-599 (protein)
chain: MMNKLYIGNLSPAVTADDLRQLFGDRKLPLAGQVLLKSGYAFVDYPDQNWAIRAIETLSGKVELHGKIMEVDYSVSKKLRSRKIQIRNIPPHLQWEVLDGLLAQYGTVENVEQVNTDTETAVVNVTYATREEAKIAMEKLSGHQFENYSFKISYIPDEEVSSPSPPQRAQRGDHSSREQGHAPGGTSQARQIDFPLRILVPTQFVGAIIGKEGLTIKNITKQTQSRVDIHRKENSGAAEKPVTIHATPEGTSEACRMILEIMQKEADETKLAEEIPLKILAHNGLVGRLIGKEGRNLKKIEHETGTKITISSLQDLSIYNPERTITVKGTVEACASAEIEIMKKLREAFENDMLAVNQQANLIPGLNLSALGIFSTGLSVLSPPAGPRGAPPAAPYHPFTTHSGYFSSLYPHHQFGPFPHHHSYPEQEIVNLFIPTQAVGAIIGKKGAHIKQLARFAGASIKIAPAEGPDVSERMVIITGPPEAQFKAQGRIFGKLKEENFFNPKEEVKLEAHIRVPSSTAGRVIGKGGKTVNELQNLTSAEVIVPRDQTPDENEEVIVRIIGHFFASQTAQRKIREIVQQVKQQEQKYPQGVASQRSK

- binding [2]: binds
B3: insulin-like growth factor 2 mRNA-binding protein 3 (IGF2BP3), Myc-tagged, O00425 1-579 (protein)
chain: MNKLYIGNLSENAAPSDLESIFKDAKIPVSGPFLVKTGYAFVDCPDESWALKAIEALSGKIELHGKPIEVEHSVPKRQRIRKLQIRNIPPHLQWEVLDSLLVQYGVVESCEQVNTDSETAVVNVTYSSKDQARQALDKLNGFQLENFTLKVAYIPDEMAAQQNPLQQPRGRRGLGQRGSSRQGSPGSVSKQKPCDLPLRLLVPTQFVGAIIGKEGATIRNITKQTQSKIDVHRKENAGAAEKSITILSTPEGTSAACKSILEIMHKEAQDIKFTEEIPLKILAHNNFVGRLIGKEGRNLKKIEQDTDTKITISPLQELTLYNPERTITVKGNVETCAKAEEEIMKKIRESYENDIASMNLQAHLIPGLNLNALGLFPPTSGMPPPTSGPPSAMTPPYPQFEQSETETVHLFIPALSVGAIIGKQGQHIKQLSRFAGASIKIAPAEAPDAKVRMVIITGPPEAQFKAQGRIYGKIKEENFVSPKEEVKLEAHIRVPSFAAGRVIGKGGKTVNELQNLSSAEVVVPRDQTPDENDQVVVKITGHFYACQVAQRKIQEILTQVKQHQQQKALQSGPPQSRRK
